Results on 1 substance are retold here after paper PMC12774657.

Sequences of proteins named here, by UniProt entry; tags and fusion partners are left off. A change or cut given only in a name is not applied to a line headed by its entry. Residues count along the entry.
UniProt P27540, 1-503, stated change not applied: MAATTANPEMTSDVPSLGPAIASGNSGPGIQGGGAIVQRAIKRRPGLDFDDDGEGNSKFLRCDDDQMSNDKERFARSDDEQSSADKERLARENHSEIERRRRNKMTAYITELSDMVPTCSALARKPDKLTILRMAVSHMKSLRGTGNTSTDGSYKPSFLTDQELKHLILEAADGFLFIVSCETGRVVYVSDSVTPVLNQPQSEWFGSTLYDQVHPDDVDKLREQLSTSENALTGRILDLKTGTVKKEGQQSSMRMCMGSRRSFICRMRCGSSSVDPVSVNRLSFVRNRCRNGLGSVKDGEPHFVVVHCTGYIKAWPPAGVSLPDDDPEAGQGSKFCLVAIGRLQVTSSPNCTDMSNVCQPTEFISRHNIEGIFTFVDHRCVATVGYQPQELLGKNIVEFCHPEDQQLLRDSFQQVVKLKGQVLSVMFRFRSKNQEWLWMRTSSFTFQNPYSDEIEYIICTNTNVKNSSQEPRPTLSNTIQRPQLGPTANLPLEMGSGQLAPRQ

For this experiment, the target named is Gal4DBD-ARNT (1–503)-2Myc (UniProt P27540). The experiment in a line: two-hybrid.

Results are given in words; binding and its absence hold for the method and conditions named. Binding can be weak; no strength is given.

Consider “SIM1.R171H (1–438) fused to the VP64-p65-RTA (VPR) activation domain (from UniProt P81133) (domain or fragment)”, for which the binding entry is “binds”.
